# Measurements reported in PubChem BioAssay AID652243 (Drosophila RNAi Screening Center, 2013).
# Assay: 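Fly genes required for human androgen receptor driven transcription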 (primary screen)
# Cells: Drosophila S2R+ cells
# Knock-down reagent: long dsRNA against Drosophila genes
# Timing: 72 h (48 h, then 24 h hormone)
# Challenge: synthetic androgen R1881 at 10 nM for 24 h
# Read-out: 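Per-well raw luminescence of the androgen-driven firefly reporter and of the Renilla control, two replicates each, without normalisation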
# Direction: firefly reporter light: higher = more light from androgen-responsive reporter; Renilla control light: higher = more constitutive control signal (cell number, transfection)
# Hit rule: 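Across duplicate plates, a knock-down whose log firefly/Renilla ratio shifted a set fold down or up from the GFP/LacZ control mean was a hit; the downward cut appears as both 1.5 and 3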
# Meaning of the calls: active = hit: reporter lowered or raised; inactive = no hit
# In all, the deposit lists about 24,000 reagents; this is an unselected part of those with a known target gene and a result. In the full data, 246 (1%) were called active. 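Plates not normalised; calls are printed but the firefly/Renilla ratio behind them is not deposited; fold cut for lowering reported inconsistently.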 Raw values are not corrected between plates. A plus sign joins genes that one reagent is predicted to hit. Not stated in the record: the amount of reagent.
predicted target,DRSC id,"firefly reporter light, replicate 1","firefly reporter light, replicate 2","Renilla control light, replicate 1","Renilla control light, replicate 2",call
vg (GeneID 36421),DRSC07715,2.04e5,1.69e5,2.29e6,2.54e6,inactive
vg (GeneID 36421),DRSC22669,1.02e6,9.22e5,1.29e6,1.20e6,inactive
vg (GeneID 36421),DRSC29857,4.36e5,3.89e5,1.11e6,1.09e6,inactive
ric8b + ric8a,DRSC18104,3.74e5,3.61e5,2.79e6,3.00e6,inactive
CG6870 (GeneID 35067),DRSC02998,1.19e5,1.32e5,1.62e6,1.37e6,inactive
CG6870 (GeneID 35067),DRSC25586,7.57e5,8.71e5,8.09e5,8.52e5,inactive
CG3795 (GeneID 31128),DRSC18593,1.15e5,95714,7.92e5,6.06e5,inactive
CG3795 (GeneID 31128),DRSC25687,8.61e5,8.80e5,1.21e6,1.34e6,inactive
ocn (GeneID 43567),DRSC17020,2.87e5,1.85e5,2.57e6,2.80e6,inactive
CG3149 (GeneID 31489),DRSC17732,95692,91776,7.14e5,5.69e5,inactive
CG3149 (GeneID 31489),DRSC27511,2.67e5,2.98e5,4.67e5,8.60e5,inactive
CG7054 (GeneID 42643),DRSC16185,33264,33376,4.90e5,6.05e5,inactive
CG7054 (GeneID 42643),DRSC26659,1.77e5,2.68e5,7.65e5,7.52e5,inactive
Oda (GeneID 36307),DRSC07626,3.27e5,2.44e5,1.32e6,1.26e6,inactive
Oda (GeneID 36307),DRSC28076,5.34e5,5.78e5,1.37e6,1.17e6,inactive
CG7025 (GeneID 34042),DRSC03002,2.22e5,1.77e5,1.44e6,1.44e6,inactive
drn + CG43675,DRSC15147,1.41e5,1.54e5,1.65e6,1.97e6,inactive
Had1 (GeneID 32592),DRSC20216,5.35e5,5.07e5,3.17e6,2.23e6,inactive
CG11044 (GeneID 37281),DRSC06026,65928,82835,1.30e6,1.31e6,inactive
CG11044 (GeneID 37281),DRSC27143,2.38e5,2.38e5,6.17e5,3.93e5,inactive
Karl (GeneID 32131),DRSC19883,61047,49935,5.61e5,4.75e5,inactive
CG7702 (GeneID 42242),DRSC16293,66401,84257,5.08e5,5.36e5,inactive
CG7702 (GeneID 42242),DRSC27592,2.42e5,2.66e5,3.79e5,5.58e5,inactive
Tnks (GeneID 43095),DRSC14154,1.77e5,1.65e5,1.60e6,1.60e6,inactive
Sur (GeneID 34350),DRSC03447,8.69e5,7.46e5,1.22e6,8.73e5,inactive
Sur (GeneID 34350),DRSC27276,3.91e5,2.15e5,5.62e5,3.83e5,inactive
CR10032 (GeneID 40877),DRSC12499,67,6122,,,inactive
CR10032 (GeneID 40877),DRSC28183,4.59e5,4.53e5,1.97e6,1.66e6,inactive
ND-15 (GeneID 33179),DRSC00311,1.09e6,8.76e5,5.40e6,2.28e6,inactive
Spn42De (GeneID 35602),DRSC05011,1.28e5,1.13e5,1.29e6,1.10e6,inactive
Spn42De (GeneID 35602),DRSC28039,5.16e5,4.02e5,1.78e6,1.67e6,inactive
vimar (GeneID 35609),DRSC05026,9.12e5,6.07e5,1.65e6,1.78e6,inactive
Obp50a (GeneID 246432),DRSC22152,6.85e5,6.75e5,3.23e6,2.54e6,inactive
Obp50a (GeneID 246432),DRSC28404,4.40e5,5.01e5,7.17e5,1.04e6,inactive
Or43a (GeneID 35644),DRSC07485,3.67e5,3.09e5,2.59e6,1.71e6,inactive
Apoltp (GeneID 34283),DRSC02508,7.37e5,8.11e5,1.21e6,1.14e6,inactive
SCaMC (GeneID 39415),DRSC10293,7.78e5,9.13e5,1.63e6,1.99e6,inactive
SCaMC (GeneID 39415),DRSC10415,1.97e5,1.34e5,2.39e6,1.53e6,inactive
SCaMC (GeneID 39415),DRSC28518,5.15e5,6.11e5,7.61e5,8.69e5,inactive
P58IPK (GeneID 41161),DRSC16404,1.63e5,1.19e5,3.29e6,2.88e6,inactive
P58IPK (GeneID 41161),DRSC27012,4.00e5,3.67e5,9.23e5,7.68e5,inactive
Caf1-55 (GeneID 41836),DRSC16596,2.25e5,2.28e5,7.04e5,7.26e5,inactive
CG30183 (GeneID 37749),DRSC04450,1.60e5,2.09e5,1.38e6,1.30e6,inactive
CG30183 (GeneID 37749),DRSC04472,1.86e5,1.22e5,1.29e6,1.02e6,inactive
CG9733 (GeneID 43601),DRSC16549,2.03e5,1.76e5,2.72e6,2.48e6,inactive
fz2 (GeneID 40090),DRSC10087,806,940,46519,29238,active
fz2 (GeneID 40090),DRSC11349,1.79e5,1.53e5,2.15e6,1.37e6,inactive
CG6204 (GeneID 42877),DRSC15991,92616,76855,6.34e5,6.56e5,inactive
CG14805 (GeneID 31146),DRSC18554,1.51e5,1.50e5,2.67e6,3.16e6,inactive
MCU (GeneID 59223),DRSC10339,2.17e5,1.66e5,2.81e6,2.57e6,inactive
Mpc1 (GeneID 42268),DRSC14770,1.34e5,1.06e5,8.25e5,7.04e5,inactive
CG42553 (GeneID 38094),DRSC08356,68208,70880,1.40e6,1.05e6,inactive
CG10051 (GeneID 37222),DRSC05959,91681,1.24e5,1.79e6,2.01e6,inactive
CG9391 (GeneID 40346),DRSC11858,2.02e5,1.70e5,1.85e6,2.20e6,inactive
CG9391 (GeneID 40346),DRSC39275,,,,,inactive
CG17105 (GeneID 34466),DRSC02574,2.36e5,2.18e5,1.34e6,1.12e6,inactive
CG17105 (GeneID 34466),DRSC26156,3.40e5,3.45e5,7.34e5,7.04e5,inactive
CG2818 (GeneID 33597),DRSC00540,5.61e5,6.62e5,2.60e6,1.93e6,inactive

Called active (from the list above):
predicted target,DRSC id,"firefly reporter light, replicate 1","firefly reporter light, replicate 2","Renilla control light, replicate 1","Renilla control light, replicate 2",call
fz2 (GeneID 40090),DRSC10087,806,940,46519,29238,active
